PubChem BioAssay AID1224828 | NIAID – 2016
Test: 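Knock-downs that increase or decrease LPS-induced p65 nuclear translocation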 (primary screen). Cells: mouse RAW264.7 G9 macrophage reporter cells (GFP-p65, Tnf promoter-mCherry). Reagent: siRNA pool against mouse genes, 100 nM. Timing: 2 days siRNA transfection, then 40 min LPS before fixation. Treatment: LPS (Salmonella minnesota R595) at 10 ng/ml. Read-out: 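Microscopy ratio of nuclear to perinuclear-ring GFP-p65 signal, scaled to the plate median; gene score is the average of two replicate robust z-scores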. Scale: p65 translocation robust z-score: higher = more nuclear NF-kappaB p65 after LPS than the plate median; nuclear/cytoplasmic p65 ratio: higher = more nuclear NF-kappaB p65. Call rule: 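Called active when z exceeds 3.3 or falls under -1.56 (median of Tlr4 controls), giving activity score of at least 50; no calls for control wells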. Meaning of the calls: active = hit (p65 shift raised or lowered); inactive = no clear change.
The deposit covers about 17,000 reagents; shown is a random part of them. Of all reagents, 762 (4.5%) were called active. 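Active calls include both raised and lowered p65 entry, mostly lowered; wells with fewer than 50 cells lack a z-score.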 Raw values are not corrected between plates.

no.	gene symbol	p65 translocation robust z-score	nuclear/cytoplasmic p65 ratio, rep 1	nuclear/cytoplasmic p65 ratio, rep 2	low cell count flag	activity call
1	Med26 (GeneID 70625)	0.75	1.6	1.41	enough cells to score	inactive
2	Heatr3 (GeneID 234549)		1.76	1.77	fewer than 50 cells per well; well left out of scoring	inactive
3	Cox7a1 (GeneID 12865)	-0.85	1.4	1.7	enough cells to score	inactive
4	Mob3b (GeneID 214944)	0.38	1.89	1.61	enough cells to score	inactive
5	Fmr1nb (GeneID 207854)		1.35	1.26	fewer than 50 cells per well; well left out of scoring	inactive
6	Prkci (GeneID 18759)	-0.04	1.74	1.33	enough cells to score	inactive
7	Apod (GeneID 11815)	0.33	1.68	1.66	enough cells to score	inactive
8	Nmt1 (GeneID 18107)	0.91	1.95	1.58	enough cells to score	inactive
9	Kcna5 (GeneID 16493)	0.45	1.57	1.41	enough cells to score	inactive
10	Nab1 (GeneID 17936)	-3.3	1.27	1.08	enough cells to score	active
11	Phldb1 (GeneID 102693)	-0.54	1.49	1.47	enough cells to score	inactive
12	Nyap2 (GeneID 241134)	1.51	1.61	1.76	enough cells to score	inactive
13	Akap8 (GeneID 56399)	1.16	1.79	1.6	enough cells to score	inactive
14	Tefm (GeneID 68550)	-2.2	1.24	1.14	enough cells to score	active
15	A430005L14Rik (GeneID 97159)		1.27	1.2	fewer than 50 cells per well; well left out of scoring	inactive
16	Gna13 (GeneID 14674)	-0.88	1.39	1.44	enough cells to score	inactive
17	Tsc22d1 (GeneID 21807)	-1.21	1.4	1.29	enough cells to score	inactive
18	Zkscan6 (GeneID 52712)		1.15	1.18	fewer than 50 cells per well; well left out of scoring	inactive
19	Pcca (GeneID 110821)	-0.25	1.52	1.28	enough cells to score	inactive
20	Pum3 (GeneID 52874)	-0.5	1.43	1.55	enough cells to score	inactive
21	Slc36a3 (GeneID 215332)		1.49	1.18	fewer than 50 cells per well; well left out of scoring	inactive
22	Arpin (GeneID 70420)		1.52	0	fewer than 50 cells per well; well left out of scoring	inactive
23	Scap (GeneID 235623)	-0.46	1.42	1.49	enough cells to score	inactive
24	Or8k16 (GeneID 258866)	1.81	2.01	1.78	enough cells to score	inactive
25	Gskip (GeneID 66787)	0.88	1.48	1.59	enough cells to score	inactive
26	Myef2 (GeneID 17876)	-0.84	1.65	1.47	enough cells to score	inactive
27	4930591A17Rik (GeneID 68175)		1.29	1.18	fewer than 50 cells per well; well left out of scoring	inactive
28	Fgd6 (GeneID 13998)	1.64	1.72	1.51	enough cells to score	inactive
29	Rbp4 (GeneID 19662)	-0.27	1.54	1.42	enough cells to score	inactive
30	Sucnr1 (GeneID 84112)	-0.75	1.38	1.49	enough cells to score	inactive
31	Snx10 (GeneID 71982)	-1.18	1.39	1.1	enough cells to score	inactive
32	Ctns (GeneID 83429)	0	1.52	1.34	enough cells to score	inactive
33	Foxl1 (GeneID 14241)	0.23	1.47	1.39	enough cells to score	inactive
34	Ptrh2 (GeneID 217057)	1.61	1.7	1.63	enough cells to score	inactive
35	Cts8 (GeneID 56094)	0.42	1.62	1.87	enough cells to score	inactive
36	Dalrd3 (GeneID 67789)	1.53	1.31	1.67	enough cells to score	inactive
37	Vangl2 (GeneID 93840)		1.53	1.25	fewer than 50 cells per well; well left out of scoring	inactive
38	Dgat2 (GeneID 67800)	0.5	1.59	1.67	enough cells to score	inactive
39	4933405O20Rik (GeneID 243996)	-0.03	1.26	1.12	enough cells to score	inactive
40	Cd300e (GeneID 217306)	-0.7	1.52	1.5	enough cells to score	inactive
41	Ankle1 (GeneID 234396)		1.09	1.08	fewer than 50 cells per well; well left out of scoring	inactive
42	Tchhl1 (GeneID 71325)	-0.81	1.26	1.53	enough cells to score	inactive

Part of the list above in another layout.
gene symbol	p65 translocation robust z-score	nuclear/cytoplasmic p65 ratio, rep 1	nuclear/cytoplasmic p65 ratio, rep 2	low cell count flag	activity call
Mob3b (GeneID 214944)	0.38	1.89	1.61	enough cells to score	inactive
Fmr1nb (GeneID 207854)		1.35	1.26	fewer than 50 cells per well; well left out of scoring	inactive
Prkci (GeneID 18759)	-0.04	1.74	1.33	enough cells to score	inactive
Apod (GeneID 11815)	0.33	1.68	1.66	enough cells to score	inactive

The listing continues.
no.	gene symbol	p65 translocation robust z-score	nuclear/cytoplasmic p65 ratio, rep 1	nuclear/cytoplasmic p65 ratio, rep 2	low cell count flag	activity call
43	Mgrn1 (GeneID 17237)	-1.19	1.54	1.47	enough cells to score	inactive
44	Bst1 (GeneID 12182)		1.14	1.2	fewer than 50 cells per well; well left out of scoring	inactive
45	Kif3c (GeneID 16570)	-0.83	1.33	1.31	enough cells to score	inactive
46	Hps6 (GeneID 20170)	0.2	1.52	1.34	enough cells to score	inactive
47	Ptk2b (GeneID 19229)	-0.02	1.67	1.38	enough cells to score	inactive
48	Dixdc1 (GeneID 330938)	2.44	1.9	1.58	enough cells to score	inactive
49	Klk1b11 (GeneID 16613)		1.6	1.7	fewer than 50 cells per well; well left out of scoring	inactive
50	Rnf17 (GeneID 30054)	-0.23	1.35	1.23	enough cells to score	inactive
51	Miga1 (GeneID 215708)	0.47	1.52	1.56	enough cells to score	inactive
52	Csrnp3 (GeneID 77771)		1.3	1.53	fewer than 50 cells per well; well left out of scoring	inactive
53	Zfp286 (GeneID 192651)	-2.75	1.31	1.13	enough cells to score	active
54	Sstr1 (GeneID 20605)		1.3	1.28	fewer than 50 cells per well; well left out of scoring	inactive
55	Nde1 (GeneID 67203)	-1.67	1.12	1.14	enough cells to score	active
56	Ipo7 (GeneID 233726)	0.21	1.47	1.44	enough cells to score	inactive
57	S100a5 (GeneID 20199)	-0.14	1.56	1.44	enough cells to score	inactive
58	Tsnaxip1 (GeneID 72236)		1.33	1.15	fewer than 50 cells per well; well left out of scoring	inactive
59	Rex2 (GeneID 100043034)	0.5	1.45	1.3	enough cells to score	inactive
60	Vwc2 (GeneID 319922)	-1.08	1.22	1.39	enough cells to score	inactive
61	Defb50 (GeneID 387334)	-1.19	1.55	1.35	enough cells to score	inactive
62	Ggta1 (GeneID 14594)	-1.59	1.33	1.28	enough cells to score	active
63	Tigar (GeneID 319801)	-2.37	1.15	1.17	enough cells to score	active
64	Meltf (GeneID 30060)	0.59	1.8	1.64	enough cells to score	inactive
65	Mx1 (GeneID 17857)	0.39	1.57	1.33	enough cells to score	inactive
66	Pira4 (GeneID 18727)	1.22	1.52	1.37	enough cells to score	inactive
67	Mxd4 (GeneID 17122)	0.61	1.56	1.39	enough cells to score	inactive
68	Rbm39 (GeneID 170791)	1.23	1.5	1.35	enough cells to score	inactive
69	Fam120b (GeneID 67544)		1.45	1.06	fewer than 50 cells per well; well left out of scoring	inactive
70	Capza1 (GeneID 12340)	-0.67	1.49	1.54	enough cells to score	inactive
71	Rbm7 (GeneID 67010)	0.68	1.48	1.32	enough cells to score	inactive
72	Tnfaip8 (GeneID 106869)	-0.45	1.47	1.44	enough cells to score	inactive
73	Dclk3 (GeneID 245038)		1.74	1.1	fewer than 50 cells per well; well left out of scoring	inactive
74	Clec11a (GeneID 20256)	0.28	1.55	1.64	enough cells to score	inactive
75	Myo5b (GeneID 17919)	-1.28	1.58	1.4	enough cells to score	inactive
